{
  "source": "PubChem BioAssay AID248",
  "about": "(DTP/NCI, 2004)",
  "system": "L1210 leukemia ip in BDF1 mice, survival T/C",
  "test": "NCI In Vivo Anticancer Drug Screen. Data for tumor model L1210 Leukemia (intraperitoneal) in B6D2F1 (BDF1) mice",
  "settings": "T/C endpoint: mean survival time, higher T/C = longer survival",
  "key": {"[1]": {"settings": "dose: 400.0 mg/kg/injection, schedule: Q01DX001 (ip), vehicle: saline"}, "[2]": {"settings": "dose: 400.0 mg/kg/injection, schedule: Q01DX009 (ip), vehicle: Klucel (hydroxypropylcellulose) (HPC)"}, "[3]": {"settings": "dose: 400.0 mg/kg/injection, schedule: Q04DX003 (ip), vehicle: saline with Tween-80"}, "[4]": {"settings": "dose: 200.0 mg/kg/injection, schedule: Q01DX009 (ip), vehicle: saline with Tween-80"}},
  "note": "The list shows only some results of the screen, not a fair sample: it is rich in T/C values a quarter to a half above the control, in often repeated tests (any T/C) and in doses without a T/C. Further doses and runs are listed elsewhere. T/C is the treated group as % of the vehicle group. Some doses have a count of surviving animals in place of a T/C: the source holds a T/C of zero for them, seemingly a mark for toxic or unscored doses. Some doses without a T/C left all or most animals alive at the check, yet need not have been tolerated: the source hardly ever lists a survival T/C far under the control, and the zero likely stands for such cases as well. Counts of survivors are from the toxicity check (mostly the fifth day) where no day follows; animals may have died later. Schedules are NCI's codes, read here as Q, the interval in days (D) or hours (H), X, the number of doses. Where survival is the endpoint, the PubChem record calls one and a half times the control and up active, and a quarter to a half above the control has no call in these data; cut-offs in other NCI protocols can differ. Some schedule codes hold Z or #, which are not explained here. Some T/C values carry the count of animals alive at the toxicity check (mostly the fifth day); where none is given, no animal had died by that day.",
  "data": [
    {"compound": "OCC1OC(n2cnc3c(NO)nc(NO)nc32)C(O)C1O", "note": "(stereo unspecified)", "values": [
      {"measurement": "T/C", "setting": "dose: 9.0 mg/kg/injection, schedule: Q01DX009 (ip), vehicle: saline", "value": "129 % of control"},
      {"measurement": "T/C", "setting": "dose: 13.0 mg/kg/injection, schedule: Q01DX009 (ip), vehicle: saline", "value": "137 % of control"},
      {"measurement": "T/C", "setting": "dose: 20.0 mg/kg/injection, schedule: Q01DX009 (ip), vehicle: saline", "value": "140 % of control"},
      {"measurement": "T/C", "setting": "dose: 75.0 mg/kg/injection, schedule: Q01DX001 (ip), vehicle: saline", "value": "125 % of control"},
      {"measurement": "survivor count", "setting": "dose: 300.0 mg/kg/injection, schedule: Q01DX001 (ip), vehicle: saline", "value": "0 of 6"}
    ]},
    {"compound": "C=CCN(CC=C)P(=O)(OCC)OCC", "values": [
      {"measurement": "survivor count", "setting": "dose: 400.0 mg/kg/injection, schedule: Q04DX003 (ip), vehicle: saline", "value": "0 of 6"}
    ]},
    {"compound": "CN(C)CCCN1CCC2(CCCC(C(F)(F)F)C2)CC1", "note": "(stereo unspecified)", "values": [
      {"measurement": "survivor count", "setting": "[1]", "value": "1 of 4"}
    ]},
    {"compound": "CC1CC(=O)c2c(cc3c(-c4c(O)cc(O)c5c(O)c6c(cc45)OC(C)CC6=O)c(O)cc(O)c3c2O)O1", "note": "(stereo unspecified)", "values": [
      {"measurement": "survivor count", "setting": "dose: 400.0 mg/kg/injection, schedule: Q04DX003 (ip), vehicle: carboxymethylcellulose (CMC)", "value": "0 of 6"}
    ]},
    {"compound": "O=NN(CCCN(N=O)C(=O)Nc1c[nH]c(=O)[nH]c1=O)C(=O)Nc1c[nH]c(=O)[nH]c1=O", "values": [
      {"measurement": "T/C", "setting": "dose: 300.0 mg/kg/injection, schedule: Q01DX Z (ip), vehicle: saline", "value": "130 % of control"},
      {"measurement": "T/C", "setting": "dose: 400.0 mg/kg/injection, schedule: Q01DX Z (ip), vehicle: saline", "value": "146 % of control"}
    ]},
    {"compound": "O=C1NC(=S)S/C1=C\\c1ccc([N+](=O)[O-])cc1", "values": [
      {"measurement": "survivor count", "setting": "dose: 200.0 mg/kg/injection, schedule: Q01DX001 (ip), vehicle: saline", "value": "2 of 4"},
      {"measurement": "survivor count", "setting": "[1]", "value": "0 of 6"}
    ]},
    {"compound": "NC(=O)/C(=C\\c1ccncc1)c1cccc2ccccc12", "values": [
      {"measurement": "survivor count", "setting": "[2]", "value": "4 of 6"},
      {"measurement": "survivor count", "setting": "[3]", "value": "6 of 6"}
    ]},
    {"compound": "O=C(Nc1ccc(Nc2ccccc2)cc1)Nc1ccccc1C(F)(F)F", "values": [
      {"measurement": "survivor count", "setting": "dose: 100.0 mg/kg/injection, schedule: Q01DX009 (ip), vehicle: carboxymethylcellulose (CMC)", "value": "3 of 3"},
      {"measurement": "survivor count", "setting": "dose: 200.0 mg/kg/injection, schedule: Q04DX003 (ip), vehicle: carboxymethylcellulose (CMC)", "value": "6 of 6"},
      {"measurement": "survivor count", "setting": "dose: 400.0 mg/kg/injection, schedule: Q01DX009 (ip), vehicle: carboxymethylcellulose (CMC)", "value": "6 of 6"}
    ]},
    {"compound": "CC(CC(=O)O)Nc1ccc(Cl)c(Cl)c1", "note": "(stereo unspecified)", "values": [
      {"measurement": "survivor count", "setting": "[4]", "value": "6 of 6"},
      {"measurement": "survivor count", "setting": "dose: 400.0 mg/kg/injection, schedule: Q01DX009 (ip), vehicle: saline with Tween-80", "value": "0 of 6"},
      {"measurement": "survivor count", "setting": "[3]", "value": "2 of 6"}
    ]},
    {"compound": "Cc1cccc(C(N)=S)n1", "values": [
      {"measurement": "survivor count", "setting": "[2]", "value": "0 of 6"}
    ]},
    {"compound": "CC(C)C1=CC2=CCC3C(C)(C(N)=O)CCCC3(C)C2CC1CC#N", "note": "(stereo unspecified)", "values": [
      {"measurement": "survivor count", "setting": "dose: 100.0 mg/kg/injection, schedule: Q04DX003 (ip), vehicle: saline with Tween-80", "value": "6 of 6"}
    ]},
    {"compound": "C1CC[N+]2=C(C1)OCCC2", "values": [
      {"measurement": "T/C", "setting": "dose: 100.0 mg/kg/injection, schedule: Q01DX009 (ip), vehicle: saline", "value": "133 % of control"},
      {"measurement": "T/C", "setting": "dose: 200.0 mg/kg/injection, schedule: Q01DX009 (ip), vehicle: saline", "value": "128 % of control"},
      {"measurement": "survivor count", "setting": "dose: 400.0 mg/kg/injection, schedule: Q01DX009 (ip), vehicle: saline", "value": "0 of 6"}
    ]},
    {"compound": "[B-][N+](C)(C)C", "values": [
      {"measurement": "survivor count", "setting": "dose: 200.0 mg/kg/injection, schedule: Q01DX001 (ip), vehicle: Klucel (hydroxypropylcellulose) (HPC)", "value": "6 of 10"},
      {"measurement": "survivor count", "setting": "dose: 400.0 mg/kg/injection, schedule: Q01DX001 (ip), vehicle: Klucel (hydroxypropylcellulose) (HPC)", "value": "1 of 10"}
    ]},
    {"compound": "COc1cc2ccc3c(c2cc1OC)C=[N+](C)CC3", "values": [
      {"measurement": "survivor count", "setting": "dose: 400.0 mg/kg/injection, schedule: Q01DX009 (ip), vehicle: saline sonified", "value": "0 of 6"}
    ]},
    {"compound": "CNc1nc(Nc2ccc(C3=NCCN3)cc2)nc(Nc2ccc(C3=NCCN3)cc2)n1", "values": [
      {"measurement": "T/C", "setting": "dose: 30.0 mg/kg/injection, schedule: Q01DX Z (ip), vehicle: saline", "value": "132 % of control"},
      {"measurement": "T/C", "setting": "dose: 45.0 mg/kg/injection, schedule: Q01DX Z (ip), vehicle: saline", "value": "148 % of control [5 of 6 alive]"},
      {"measurement": "survivor count", "setting": "dose: 60.0 mg/kg/injection, schedule: Q01DX015 (ip), vehicle: water", "value": "1 of 6"},
      {"measurement": "survivor count", "setting": "dose: 100.0 mg/kg/injection, schedule: Q01DX001 (ip), vehicle: water", "value": "3 of 6"},
      {"measurement": "survivor count", "setting": "dose: 150.0 mg/kg/injection, schedule: Q01DX001 (ip), vehicle: water", "value": "0 of 6"},
      {"measurement": "survivor count", "setting": "dose: 300.0 mg/kg/injection, schedule: Q01DX001 (ip), vehicle: water", "value": "0 of 6"},
      {"measurement": "survivor count", "setting": "dose: 600.0 mg/kg/injection, schedule: Q01DX001 (ip), vehicle: water", "value": "0 of 6"}
    ]},
    {"compound": "CN(C)c1ccc(/C=N/NC(=O)c2ccc(Cl)cc2)cc1", "values": [
      {"measurement": "survivor count", "setting": "[4]", "value": "3 of 3"}
    ]},
    {"compound": "COc1ccc(C(=O)N(N)C2CCCCC2)cc1", "values": [
      {"measurement": "survivor count", "setting": "[3]", "value": "3 of 6"}
    ]},
    {"compound": "CCC1(CC)C(=O)NC(=O)N(C)C1=O", "values": [
      {"measurement": "survivor count", "setting": "dose: 400.0 mg/kg/injection, schedule: Q04DX002 (ip), vehicle: Klucel (hydroxypropylcellulose) (HPC)", "value": "3 of 3"}
    ]},
    {"compound": "O=C1OC(=O)c2c(O)cccc21", "values": [
      {"measurement": "survivor count", "setting": "dose: 225.0 mg/kg/injection, schedule: Q01DX009 (ip), vehicle: saline with Tween-80", "value": "3 of 6"},
      {"measurement": "survivor count", "setting": "dose: 335.0 mg/kg/injection, schedule: Q01DX009 (ip), vehicle: saline with Tween-80", "value": "0 of 6"}
    ]},
    {"compound": "O=c1[nH]c2nc3ccccc3nc2c(=O)n1O", "values": [
      {"measurement": "survivor count", "setting": "[2]", "value": "1 of 6"}
    ]}
  ]
}
